Measured values from article PMC6271229 (2014).
HELM strings list residues between dots; [ac] is acetyl, [am] amide, other brackets name non-standard units.

Assay: general procedure: Fmoc solid-phase peptide synthesis; trityl chloride resin
Details: whole synthesis, analytical HPLC (Thermo Hypersil Gold C18, 150 × 4.6 mm)

## PEPTIDE1{W.R.W.R.W.R.W.R.W.R}$PEPTIDE1,PEPTIDE1,1:R1-10:R2$$$V2.0
  final HPLC purity: >95%
